In article PMC11005723, “Development of Complementary Photo‐arginine/lysine to Promote Discovery of Arg/Lys hPTMs Interactomes” (Advanced Science, 2024):
This continues a long series; more values of the same kind are listed elsewhere.

Tested on: HEK293T nuclear lysates
Assay: SILAC‐based pull‐down proteomics H4K5me1/H4K5 (probes 6/5)
Assay type: binding, human

probe 6: H4K5me peptide probe with photo‐arginine R(dz) and K(biotin) (SGRGKGGKGLGKGGK; photo-arginine R(dz) at 3; monomethyl-lysine at 5; K(biotin) at 15)
B6 log2 (H4K5me/H4K5) (protein P31930 UQCRC1, run B6): 0.5155
C6 log (H4K5me/H4K5) (protein P31930 UQCRC1, run C6): 0.5155
B6 log2 (H4K5me/H4K5) (protein P35249 RFC4, run B6): 0.2811
C6 log (H4K5me/H4K5) (protein P35249 RFC4, run C6): 0.4374
B6 log2 (H4K5me/H4K5) (protein P35251 RFC1, run B6): 0.4109
C6 log (H4K5me/H4K5) (protein P35251 RFC1, run C6): 0.4084
B6 log2 (H4K5me/H4K5) (protein P37275 ZEB1, run B6): 0.1351
C6 log (H4K5me/H4K5) (protein P37275 ZEB1, run C6): 0.2443
B6 log2 (H4K5me/H4K5) (protein P38432 COIL, run B6): 0.3267
C6 log (H4K5me/H4K5) (protein P38432 COIL, run C6): 0.1295
B6 log2 (H4K5me/H4K5) (protein P40938 RFC3, run B6): 0.6479
C6 log (H4K5me/H4K5) (protein P40938 RFC3, run C6): 0.6479
B6 log2 (H4K5me/H4K5) (protein P43246 MSH2, run B6): 0.4047
C6 log (H4K5me/H4K5) (protein P43246 MSH2, run C6): 0.4454
B6 log2 (H4K5me/H4K5) (protein P45973 CBX5, run B6): 0.3491
C6 log (H4K5me/H4K5) (protein P45973 CBX5, run C6): 0.2866
B6 log2 (H4K5me/H4K5) (protein P49588 AARS, run B6): 0.2952
C6 log (H4K5me/H4K5) (protein P49588 AARS, run C6): -0.2234
B6 log2 (H4K5me/H4K5) (protein P49790 NUP153, run B6): 0.2928
C6 log (H4K5me/H4K5) (protein P49790 NUP153, run C6): 0.4472
B6 log2 (H4K5me/H4K5) (protein P49916 LIG3, run B6): 0.2629
C6 log (H4K5me/H4K5) (protein P49916 LIG3, run C6): -0.5452
B6 log2 (H4K5me/H4K5) (protein P50402 EMD, run B6): 0.4218
C6 log (H4K5me/H4K5) (protein P50402 EMD, run C6): -0.2397
B6 log2 (H4K5me/H4K5) (protein P52948 NUP98, run B6): 0.4345
C6 log (H4K5me/H4K5) (protein P52948 NUP98, run C6): -0.07342
B6 log2 (H4K5me/H4K5) (protein P55081 MFAP1, run B6): 0.1246
C6 log (H4K5me/H4K5) (protein P55081 MFAP1, run C6): 0.0595
B6 log2 (H4K5me/H4K5) (protein P61964 WDR5, run B6): 0.1204
C6 log (H4K5me/H4K5) (protein P61964 WDR5, run C6): 0.1868
B6 log2 (H4K5me/H4K5) (protein P67936 TPM4, run B6): 1.923
C6 log (H4K5me/H4K5) (protein P67936 TPM4, run C6): 1.923
B6 log2 (H4K5me/H4K5) (protein P78549 NTHL1, run B6): 0.4595
C6 log (H4K5me/H4K5) (protein P78549 NTHL1, run C6): 1.343
B6 log2 (H4K5me/H4K5) (protein PAICS (E9PBS1), run B6): 0.00261
C6 log (H4K5me/H4K5) (protein PAICS (E9PBS1), run C6): 0.3265
B6 log2 (H4K5me/H4K5) (protein PARP1 (P09874), run B6): 0.04296
C6 log (H4K5me/H4K5) (protein PARP1 (P09874), run C6): 0.03527
B6 log2 (H4K5me/H4K5) (protein PATZ1 (Q9HBE1), run B6): 0.109
C6 log (H4K5me/H4K5) (protein PATZ1 (Q9HBE1), run C6): 0.4872
B6 log2 (H4K5me/H4K5) (protein PCBP1 (Q15365), run B6): 0.01999
C6 log (H4K5me/H4K5) (protein PCBP1 (Q15365), run C6): 0.02233
B6 log2 (H4K5me/H4K5) (protein PCBP2 (Q15366), run B6): -0.02517
C6 log (H4K5me/H4K5) (protein PCBP2 (Q15366), run C6): -0.09647
B6 log2 (H4K5me/H4K5) (protein PDCD4 (Q53EL6), run B6): 0.06585
C6 log (H4K5me/H4K5) (protein PDCD4 (Q53EL6), run C6): -0.4032
B6 log2 (H4K5me/H4K5) (protein PDCD11 (Q14690), run B6): 0.1142
C6 log (H4K5me/H4K5) (protein PDCD11 (Q14690), run C6): 0.05176
B6 log2 (H4K5me/H4K5) (protein PDIA3 (P30101), run B6): 0.09632
C6 log (H4K5me/H4K5) (protein PDIA3 (P30101), run C6): 0.2611
B6 log2 (H4K5me/H4K5) (protein PDS5A (Q29RF7), run B6): 0.02979
C6 log (H4K5me/H4K5) (protein PDS5A (Q29RF7), run C6): 0.04248
B6 log2 (H4K5me/H4K5) (protein PELO (Q9BRX2), run B6): 0.04643
C6 log (H4K5me/H4K5) (protein PELO (Q9BRX2), run C6): 0.3608
B6 log2 (H4K5me/H4K5) (protein PELP1 (Q8IZL8), run B6): 0.08624
C6 log (H4K5me/H4K5) (protein PELP1 (Q8IZL8), run C6): 0.6085
B6 log2 (H4K5me/H4K5) (protein PES1 (B5MCF9), run B6): 0.05425
C6 log (H4K5me/H4K5) (protein PES1 (B5MCF9), run C6): 0.06731
B6 log2 (H4K5me/H4K5) (protein PGAM1 (P18669), SILAC run B6): -1.253
C6 log (H4K5me/H4K5) (protein PGAM1 (P18669), SILAC run C6): -1.067
B6 log2 (H4K5me/H4K5) (protein PGK1 (P00558), run B6): 0.03709
C6 log (H4K5me/H4K5) (protein PGK1 (P00558), run C6): -0.01826
B6 log2 (H4K5me/H4K5) (protein PHF6 (Q8IWS0), run B6): 0.04916
C6 log (H4K5me/H4K5) (protein PHF6 (Q8IWS0), run C6): 0.1636
B6 log2 (H4K5me/H4K5) (protein PHF8 (Q9UPP1), run B6): 0.03245
C6 log (H4K5me/H4K5) (protein PHF8 (Q9UPP1), run C6): 1.099
B6 log2 (H4K5me/H4K5) (protein PHF10 (Q8WUB8), run B6): 0.1163
C6 log (H4K5me/H4K5) (protein PHF10 (Q8WUB8), run C6): -0.6344
B6 log2 (H4K5me/H4K5) (protein PIAS1 (O75925), SILAC run B6): -0.2334
C6 log (H4K5me/H4K5) (protein PIAS1 (O75925), SILAC run C6): 0.4779
B6 log2 (H4K5me/H4K5) (protein PIAS4 (Q8N2W9), SILAC run B6): -0.1965
C6 log (H4K5me/H4K5) (protein PIAS4 (Q8N2W9), SILAC run C6): -0.009806
B6 log2 (H4K5me/H4K5) (protein PITRM1 (Q5JRX3), SILAC run B6): -0.7354
C6 log (H4K5me/H4K5) (protein PITRM1 (Q5JRX3), SILAC run C6): -0.4208
B6 log2 (H4K5me/H4K5) (protein PLS3 (P13797), SILAC run B6): -0.4883
C6 log (H4K5me/H4K5) (protein PLS3 (P13797), SILAC run C6): -0.4103
B6 log2 (H4K5me/H4K5) (protein POLDIP3 (Q9BY77), run B6): 0.08728
C6 log (H4K5me/H4K5) (protein POLDIP3 (Q9BY77), run C6): -0.1401
B6 log2 (H4K5me/H4K5) (protein PPIA (P62937), run B6): 0.03941
C6 log (H4K5me/H4K5) (protein PPIA (P62937), run C6): 0.03601
B6 log2 (H4K5me/H4K5) (protein PPM1G (O15355), SILAC run B6): -0.1966
C6 log (H4K5me/H4K5) (protein PPM1G (O15355), SILAC run C6): -0.3954
B6 log2 (H4K5me/H4K5) (protein PPP1CC (P36873), run B6): 0.0276
C6 log (H4K5me/H4K5) (protein PPP1CC (P36873), run C6): 0.09592
B6 log2 (H4K5me/H4K5) (protein PRC1 (O43663), SILAC run B6): -0.3094
C6 log (H4K5me/H4K5) (protein PRC1 (O43663), SILAC run C6): -0.2946
B6 log2 (H4K5me/H4K5) (protein PRKCSH (P14314), run B6): 0.02378
C6 log (H4K5me/H4K5) (protein PRKCSH (P14314), run C6): 0.03031
B6 log2 (H4K5me/H4K5) (protein PRPF4 (O43172), run B6): 0.1177
C6 log (H4K5me/H4K5) (protein PRPF4 (O43172), run C6): -0.331
B6 log2 (H4K5me/H4K5) (protein PRPF19 (Q9UMS4), run B6): 0.0001874
C6 log (H4K5me/H4K5) (protein PRPF19 (Q9UMS4), run C6): -0.153
B6 log2 (H4K5me/H4K5) (protein PRPF31 (E7EVX8), SILAC run B6): -0.5083
C6 log (H4K5me/H4K5) (protein PRPF31 (E7EVX8), SILAC run C6): 0.6262
B6 log2 (H4K5me/H4K5) (protein PRPF40A (O75400), run B6): 0.03392
C6 log (H4K5me/H4K5) (protein PRPF40A (O75400), run C6): 0.06034
B6 log2 (H4K5me/H4K5) (protein PSPC1 (Q8WXF1), SILAC run B6): -0.8388
C6 log (H4K5me/H4K5) (protein PSPC1 (Q8WXF1), SILAC run C6): 0.775
B6 log2 (H4K5me/H4K5) (protein PTBP1 (A6NLN1), run B6): 0.06671
C6 log (H4K5me/H4K5) (protein PTBP1 (A6NLN1), run C6): 0.04252
B6 log2 (H4K5me/H4K5) (protein PTGES3 (Q15185), run B6): 0.09539
C6 log (H4K5me/H4K5) (protein PTGES3 (Q15185), run C6): 0.1044
B6 log2 (H4K5me/H4K5) (protein PTMA (B8ZZQ6), run B6): 0.05332
C6 log (H4K5me/H4K5) (protein PTMA (B8ZZQ6), run C6): 0.04849
B6 log2 (H4K5me/H4K5) (protein Q05BQ5 MBTD1, run B6): 0.6459
C6 log (H4K5me/H4K5) (protein Q05BQ5 MBTD1, run C6): 0.6459
B6 log2 (H4K5me/H4K5) (protein Q5T3I0 GPATCH4, run B6): 0.5137
C6 log (H4K5me/H4K5) (protein Q5T3I0 GPATCH4, run C6): 0.5137
B6 log2 (H4K5me/H4K5) (protein Q6I9Y2 THOC7, run B6): 0.2875
C6 log (H4K5me/H4K5) (protein Q6I9Y2 THOC7, run C6): 0.2546
B6 log2 (H4K5me/H4K5) (protein Q6ZW49 PAXIP1, run B6): 0.1189
C6 log (H4K5me/H4K5) (protein Q6ZW49 PAXIP1, run C6): 0.1287
B6 log2 (H4K5me/H4K5) (protein Q8IVW6 ARID3B, run B6): 0.5018
